Values quoted from earlier work, collected in patent US20220047616A1, “Method and Compositions for Treating HTLV-1 Virus Infection” (priority 2019, published 2022).
At least one structure is not confirmed: it was looked up by name or label, or the drawing left a doubt.

Tested on: HSV-1
Conditions: reported; cited from earlier work

SMILES: C=C(C)[C@@H]1CC[C@]2(C(=O)O)CC[C@]3(C)[C@H](CC[C@@H]4[C@@]5(C)CC[C@H](O)C(C)(C)[C@@H]5CC[C@]43C)[C@@H]12 [Betulinic acid, betulinic acid]
- anti-viral activity against HSV-1 strain 1C: some anti-viral activity
